Measured values as given in patent publication US20240366582A1, “TREATMENT OF RAYNAUD'S DISEASE” (Aisa Pharma, Inc., priority 2020, published 2024).
At least one structure is not confirmed: it was looked up by name or label, or the drawing left a doubt. Some results were stated once for a whole list of compounds, not compound by compound.

Key:
[1] = tested on: Raynaud's Phenomenon (RP) attacks in participants with SSc-RP; experiment: Frequency of weekly RP attacks (symptomatic attacks / all attacks), patient diary, Phase 2a Part A; type: in vivo, human
Experimental: A randomized, placebo-controlled phase 2a study was performed and is in progress to assess the safety and efficacy of cilnidipine (10 mg and 20 mg) alone and in combination with 5 mg tadalafil, in participants with diagnosis of secondary Raynaud's disease.
Part A-Double-blind, Placebo-controlled, Parallel-group, Dose selection, will assess the safety and efficacy of two doses of cilnidipine (10 mg and 20 mg), alone and in combination with tadalafil. A total of 36 participants will be randomized to one of six pre-specified treatment arms. See Example 3 for data obtained in this phase of the study thus far, on 11 participants.
(§1) The Sponsor-developed participant-informed E-Diary has been and will be used in this study to record data. Participants have been or will be required to keep and fill the E-Diary daily as delineated in the SoAs ((FIG. 2 and FIG. 3A and/or FIG. 3B). • The relevant metrics measured by this tool daily are: • Study medication • SSc-RP symptoms (Reporting an attack including duration of attack) • Severity of the attack considering all symptoms of the attack e.g. tingling, numbness, pain, color changes (VAS 0-10 cm scale) • Participant's location at the time of the attack (inside home/outside home) • Selecting symptoms experienced during the attack (tingling, numbness, pain, color changes, other) • Pain rating during the attack (11-point Likert scale) • The RCS based on how much difficulty participants had with Raynaud's today, how many attacks the participant had, and how long they lasted. Participants will also be asked to consider how much pain, numbness, or other symptoms the Raynaud's caused in fingers (including painful sores), and how much the Raynaud's alone affected the use of hands today (VAS 0-10 cm scale). • The relevant metrics measured by this tool at the in-clinic visit (once in a Dosing Period) are: • Digital ulcer severity (VAS 0-10 cm scale)—Applicable only if participant has digital ulcers. • Scleroderma Health Assessment Questionnaire which includes Raynaud's VAS measuring participant quality of life over the past • Note: Digital ulcer severity (VAS 0-10 cm scale) and SHAQ scale can also be done on paper in-clinic, if necessary. Also, external temperature will be a feed into the E-Diary database based on participant's location.
Percent change from baseline evaluation for frequency of weekly RP attacks were or will be used as the primary efficacy variable. The sponsor-developed participant-informed diary will be used to record data. Frequency of weekly RP attacks is defined as the total number of RP attacks divided by the number of days with available diary data within the last 7 days of each dosing period then multiplied by 7. […]

[2] = tested on: Raynaud's Phenomenon (RP) attacks in participants with SSc-RP; experiment: Average duration of weekly RP attacks (symptomatic / all attacks), patient diary, Phase 2a Part A; type: in vivo, human; settings: for Average Duration of Weekly RP Attacks (All Attacks), Baseline, Min, Max / Average Duration of Weekly RP Attacks (All Attacks), Baseline, Q1, Q3 / Average Duration of Weekly RP Attacks (All Attacks), Average Duration, Min, Max / Average Duration of Weekly RP Attacks (All Attacks), Average Duration, Q1, Q3 / Average Duration of Weekly RP Attacks (All Attacks), Change from Baseline, Min, Max / Average Duration of Weekly RP Attacks (All Attacks), Change from Baseline, Q1, Q3 / Average Duration of Weekly RP Attacks (All Attacks), Percent Change from Baseline, Min, Max / Average Duration of Weekly RP Attacks (All Attacks), Percent Change from Baseline, Q1, Q3: ITT Population-Part A; for Average Duration of Weekly RP Attacks (All Attacks), Baseline, Min, Max / Average Duration of Weekly RP Attacks (All Attacks), Baseline, Q1, Q3: last 7 days of screening period, before dosing; for Average Duration of Weekly RP Attacks (All Attacks), Average Duration, Min, Max / Average Duration of Weekly RP Attacks (All Attacks), Average Duration, Q1, Q3: last 7 days of the dosing period
Source text: as §1
The absolute change in average duration of weekly RP attacks from baseline to the end of each dosing period was and will be a secondary outcome variable. The sponsor-developed participant-informed diary was and will be used to record data. Average duration of weekly RP attacks is defined as the total duration of RP attacks divided by total number of RP attacks within the last 7 days of each dosing period. Total duration of RP attacks during the last 7 days of screening period divided by the total number of RP attacks will be used as baseline for the analysis of all periods. The variable will be calculated similar to frequency data as before.
The following data was actually obtained in accordance with the protocol and plan delineated in Examples 1 and 2. The accompanying data involved 11 patients out of the planned 76 patient study. The study was done in patients with scleroderma (systemic sclerosis) who had relatively frequent Raynaud symptoms as they needed to average at least one attack per day during a screening period of up to two weeks. In this first phase of this double-blind placebo-controlled, prospective randomized study, patients were treated in parallel and after meeting study criteria were randomized to receive either placebo, cilnidipine 10 mg daily, cilnidipine 20 mg daily, tadalafil 5 mg daily, cilnidipine 10 mg plus 5 mg of tadalafil, or cilnidipine 20 mg plus 5 mg of tadalafil.

[3] = Excluding Outliers, last 7 days of the dosing period vs baseline
[4] = by Baseline RCS, first subgroup (RCS category not given), dosing period vs baseline
[5] = by Baseline RCS, first subgroup (RCS category not given)
[6] = by Baseline RCS, second subgroup (r96-r180, RCS category not given), dosing period vs baseline
[7] = by Baseline RCS, second subgroup (r96-r180, RCS category not given)

## CN1CC(=O)N2[C@H](c3ccc4c(c3)OCO4)c3[nH]c4ccccc4c3C[C@@H]2C1=O [Tadalafil, tadalafil]
[1]; baseline Raynaud Condition Score >5.0
  change in weekly frequency of attacks (in words): increased the frequency of attacks
[1]; cilnidipine and cilnidipine plus tadalafil treated patients (n=7), tadalafil alone, milder and more severe disease
  change in weekly frequency of Raynaud attacks (in words): increase
[1]; tadalafil 5 mg monotherapy (n=2) versus same dose added to cilnidipine
  efficacy in words (frequency, severity, duration of attacks, RCS): ineffective
[2]; cilnidipine or cilnidipine plus tadalafil (n=7), tadalafil monotherapy (n=2)
  change in duration of Raynaud attacks (in words): increase

## COCCOC(=O)C1=C(C)NC(C)=C(C(=O)OC/C=C/c2ccccc2)C1c1cccc([N+](=O)[O-])c1 (stereo not shown) [Cilnidipine, cilnidipine]
[1]; typical Raynaud attacks, pooled cilnidipine monotherapy (n=3), pooled cilnidipine plus tadalafil (n=4), pooled 10 mg or 20 mg with or without tadalafil
  reduction in the weekly frequency of attacks, pooled datasets: −33 to −40%

## COCCOC(=O)C1=C(C)NC(C)=C(C(=O)OC/C=C/c2ccccc2)C1c1cccc([N+](=O)[O-])c1 (stereo not shown) [Pooled Cilnidipine]
[2]; Excluding Outliers
  Average Duration of Weekly RP Attacks (All Attacks), Baseline, Min, Max: 10.6, 40.0
  Average Duration of Weekly RP Attacks (All Attacks), Baseline, Q1, Q3: 10.63, 40.00
  Average Duration of Weekly RP Attacks (All Attacks), Average Duration, Min, Max: 3.0, 31.5
  Average Duration of Weekly RP Attacks (All Attacks), Average Duration, Q1, Q3: 3.00, 31.52
[2]; [3]
  Average Duration of Weekly RP Attacks (All Attacks), Change from Baseline, Min, Max: −8.5, 5.5
  Average Duration of Weekly RP Attacks (All Attacks), Change from Baseline, Q1, Q3: −8.48, 5.45
  Average Duration of Weekly RP Attacks (All Attacks), Percent Change from Baseline, Min, Max: −71.8, 21.8
  Average Duration of Weekly RP Attacks (All Attacks), Percent Change from Baseline, Q1, Q3: −71.76, 21.82
[2]; [4]
  Average Duration of Weekly RP Attacks (All Attacks), Change from Baseline, Min, Max: −8.5, 5.5
  Average Duration of Weekly RP Attacks (All Attacks), Change from Baseline, Q1, Q3: −8.48, 5.45
  Average Duration of Weekly RP Attacks (All Attacks), Percent Change from Baseline, Min, Max: −71.8, 21.8
  Average Duration of Weekly RP Attacks (All Attacks), Percent Change from Baseline, Q1, Q3: −71.76, 21.82
[2]; [5]
  Average Duration of Weekly RP Attacks (All Attacks), Baseline, Min, Max: 10.6, 40.0
  Average Duration of Weekly RP Attacks (All Attacks), Baseline, Q1, Q3: 10.63, 40.00
  Average Duration of Weekly RP Attacks (All Attacks), Average Duration, Min, Max: 3.0, 31.5
  Average Duration of Weekly RP Attacks (All Attacks), Average Duration, Q1, Q3: 3.00, 31.52

## CN1CC(=O)N2[C@H](c3ccc4c(c3)OCO4)c3[nH]c4ccccc4c3C[C@@H]2C1=O [Tadalafil 5 mg]
[2]; Excluding Outliers
  Average Duration of Weekly RP Attacks (All Attacks), Baseline, Min, Max: 10.9, 10.9
  Average Duration of Weekly RP Attacks (All Attacks), Baseline, Q1, Q3: 10.92, 10.92
  Average Duration of Weekly RP Attacks (All Attacks), Average Duration, Min, Max: 5.9, 5.9
  Average Duration of Weekly RP Attacks (All Attacks), Average Duration, Q1, Q3: 5.95, 5.95
[2]; [3]
  Average Duration of Weekly RP Attacks (All Attacks), Change from Baseline, Min, Max: −5.0, 5.0
  Average Duration of Weekly RP Attacks (All Attacks), Change from Baseline, Q1, Q3: −4.98, −4.98
  Average Duration of Weekly RP Attacks (All Attacks), Percent Change from Baseline, Min, Max: −45.6, −45.6
  Average Duration of Weekly RP Attacks (All Attacks), Percent Change from Baseline, Q1, Q3: −45.55, −45.55
[2]; [6]
  Average Duration of Weekly RP Attacks (All Attacks), Change from Baseline, Min, Max: −5.0, 188.6
  Average Duration of Weekly RP Attacks (All Attacks), Change from Baseline, Q1, Q3: −4.98, 188.57
  Average Duration of Weekly RP Attacks (All Attacks), Percent Change from Baseline, Min, Max: −45.6, 29.9
  Average Duration of Weekly RP Attacks (All Attacks), Percent Change from Baseline, Q1, Q3: −45.55, 29.93
[2]; [7]
  Average Duration of Weekly RP Attacks (All Attacks), Baseline, Min, Max: 10.9, 630.0
  Average Duration of Weekly RP Attacks (All Attacks), Baseline, Q1, Q3: 10.92, 630.00
  Average Duration of Weekly RP Attacks (All Attacks), Average Duration, Min, Max: 5.9, 818.6
  Average Duration of Weekly RP Attacks (All Attacks), Average Duration, Q1, Q3: 5.95, 818.57
